PubChem BioAssay AID1224830 – NIAID | 2016
Shown is a random part of about 18,000 deposited reagents. About 2,900 of them (16%) count as active. 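Calls are made per well; low scores hint the gene aids the LPS response, high scores that it dampens it.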 Repeated entries: four replicate wells of each siRNA pool. Reagent sequences are not shown.

Aim: 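Regulators of TLR4 signalling towards TNF-alpha in macrophage-like cells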 (primary screen)
Cell system: human THP-1 monocytic leukaemia cells, TNF dual-luciferase reporter clone, PMA-differentiated to macrophage-like cells
Reagent: siRNA pool against human genes, 50 nM
Time to read-out: LPS for 4 h, given about 3 days after siRNA transfection
Conditions: bacterial LPS (TLR4 ligand), 10 ng/ml
Measurement: 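TNF firefly reporter luminescence divided by renilla, normalised to the plate median, then turned into a robust z-score for each replicate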
Direction: TNF reporter robust z-score: higher = stronger TNF reporter response to LPS
Hit rule: 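Each well counts as active if its z-score is over 2.8 or under -1.5; controls are left without a call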

target gene | TNF reporter robust z-score | activity call
ATG4A (autophagy related 4A cysteine peptidase) | -0.49 | inactive
ATG4A (autophagy related 4A cysteine peptidase) | -0.07 | inactive
ATG4A (autophagy related 4A cysteine peptidase) | 0.06 | inactive
ATG4A (autophagy related 4A cysteine peptidase) | 0.87 | inactive
SPTA1 (spectrin alpha, erythrocytic 1) | -0.04 | inactive
SPTA1 (spectrin alpha, erythrocytic 1) | -0.11 | inactive
SPTA1 (spectrin alpha, erythrocytic 1) | -0.46 | inactive
SPTA1 (spectrin alpha, erythrocytic 1) | 0.09 | inactive
MALSU1 (mitochondrial assembly of ribosomal large subunit 1) | -0.53 | inactive
MALSU1 (mitochondrial assembly of ribosomal large subunit 1) | -0.67 | inactive
MALSU1 (mitochondrial assembly of ribosomal large subunit 1) | -0.61 | inactive
MALSU1 (mitochondrial assembly of ribosomal large subunit 1) | 0.25 | inactive
CAMK2A (calcium/calmodulin dependent protein kinase II alpha) | -0.12 | inactive
CAMK2A (calcium/calmodulin dependent protein kinase II alpha) | 0.31 | inactive
CAMK2A (calcium/calmodulin dependent protein kinase II alpha) | 0.88 | inactive
CAMK2A (calcium/calmodulin dependent protein kinase II alpha) | -0.58 | inactive
NUPR1 (nuclear protein 1, transcriptional regulator) | 0.98 | inactive
NUPR1 (nuclear protein 1, transcriptional regulator) | 1.02 | inactive
NUPR1 (nuclear protein 1, transcriptional regulator) | 0.96 | inactive
NUPR1 (nuclear protein 1, transcriptional regulator) | 1.08 | inactive
TRPV2 | -0.88 | inactive
TRPV2 | -0.64 | inactive
TRPV2 | 0.86 | inactive
TRPV2 | 0.27 | inactive
MRPL13 (mitochondrial ribosomal protein L13) | -0.96 | inactive
MRPL13 (mitochondrial ribosomal protein L13) | -0.58 | inactive
MRPL13 (mitochondrial ribosomal protein L13) | -0.3 | inactive
MRPL13 (mitochondrial ribosomal protein L13) | 1.29 | inactive
OR2T29 (olfactory receptor family 2 subfamily T member 29) | -0.47 | inactive
OR2T29 (olfactory receptor family 2 subfamily T member 29) | 0.24 | inactive
OR2T29 (olfactory receptor family 2 subfamily T member 29) | 0.27 | inactive
OR2T29 (olfactory receptor family 2 subfamily T member 29) | 0.06 | inactive
NECTIN1 (nectin cell adhesion molecule 1) | 0.86 | inactive
NECTIN1 (nectin cell adhesion molecule 1) | -0.55 | inactive
NECTIN1 (nectin cell adhesion molecule 1) | -0.39 | inactive
NECTIN1 (nectin cell adhesion molecule 1) | -0.46 | inactive
TRPV1 | -0.21 | inactive
TRPV1 | 2.86 | active
TRPV1 | 0.45 | inactive
TRPV1 | 0.8 | inactive
OGFOD2 | -0.02 | inactive
OGFOD2 | 1.21 | inactive
OGFOD2 | 4.31 | active
OGFOD2 | 1.48 | inactive
MAMDC2 (MAM domain containing 2) | -0.88 | inactive
MAMDC2 (MAM domain containing 2) | -0.2 | inactive
MAMDC2 (MAM domain containing 2) | -0.34 | inactive
MAMDC2 (MAM domain containing 2) | -0.94 | inactive
PCSK9 (proprotein convertase subtilisin/kexin type 9) | -0.63 | inactive
PCSK9 (proprotein convertase subtilisin/kexin type 9) | 0.12 | inactive
PCSK9 (proprotein convertase subtilisin/kexin type 9) | 0.37 | inactive
PCSK9 (proprotein convertase subtilisin/kexin type 9) | -0.66 | inactive
SPNS1 (SPNS lysolipid transporter 1, lysophospholipid) | 2.23 | inactive
SPNS1 (SPNS lysolipid transporter 1, lysophospholipid) | 0.44 | inactive
SPNS1 (SPNS lysolipid transporter 1, lysophospholipid) | -0.19 | inactive
SPNS1 (SPNS lysolipid transporter 1, lysophospholipid) | -1.39 | inactive
CHP2 (calcineurin like EF-hand protein 2) | -0.61 | inactive
CHP2 (calcineurin like EF-hand protein 2) | 0.95 | inactive
CHP2 (calcineurin like EF-hand protein 2) | 1.13 | inactive
CHP2 (calcineurin like EF-hand protein 2) | 1.27 | inactive
HLA-DQA1 (major histocompatibility complex, class II, DQ alpha 1) | -0.41 | inactive
HLA-DQA1 (major histocompatibility complex, class II, DQ alpha 1) | 0.39 | inactive
HLA-DQA1 (major histocompatibility complex, class II, DQ alpha 1) | 0.57 | inactive
HLA-DQA1 (major histocompatibility complex, class II, DQ alpha 1) | 0.68 | inactive
DAPK1 (death associated protein kinase 1) | -0.09 | inactive
DAPK1 (death associated protein kinase 1) | -0.58 | inactive
DAPK1 (death associated protein kinase 1) | -0.62 | inactive
DAPK1 (death associated protein kinase 1) | 0.38 | inactive
JRK (Jrk helix-turn-helix protein) | -0.22 | inactive
JRK (Jrk helix-turn-helix protein) | 0.54 | inactive
JRK (Jrk helix-turn-helix protein) | -0.98 | inactive
JRK (Jrk helix-turn-helix protein) | -0.33 | inactive

Quoted from above, 5 entries:
target gene | TNF reporter robust z-score | activity call
MALSU1 (mitochondrial assembly of ribosomal large subunit 1) | -0.61 | inactive
MALSU1 (mitochondrial assembly of ribosomal large subunit 1) | 0.25 | inactive
CAMK2A (calcium/calmodulin dependent protein kinase II alpha) | -0.12 | inactive
CAMK2A (calcium/calmodulin dependent protein kinase II alpha) | 0.31 | inactive
CAMK2A (calcium/calmodulin dependent protein kinase II alpha) | 0.88 | inactive

Further records follow.
target gene | TNF reporter robust z-score | activity call
BTBD10 (BTB domain containing 10) | -0.43 | inactive
BTBD10 (BTB domain containing 10) | 0.28 | inactive
BTBD10 (BTB domain containing 10) | 1.31 | inactive
BTBD10 (BTB domain containing 10) | -1.55 | active
ZNF396 (zinc finger protein 396) | 0.94 | inactive
ZNF396 (zinc finger protein 396) | 0.16 | inactive
ZNF396 (zinc finger protein 396) | 0.79 | inactive
ZNF396 (zinc finger protein 396) | -0.63 | inactive
GLYCTK (glycerate kinase) | -0.59 | inactive
GLYCTK (glycerate kinase) | 0.09 | inactive
GLYCTK (glycerate kinase) | -0.89 | inactive
GLYCTK (glycerate kinase) | 0 | inactive
TMSB4Y (thymosin beta 4 Y-linked) | -0.18 | inactive
TMSB4Y (thymosin beta 4 Y-linked) | 2.24 | inactive
TMSB4Y (thymosin beta 4 Y-linked) | 2.21 | inactive
TMSB4Y (thymosin beta 4 Y-linked) | 0.81 | inactive
ATG101 (autophagy related 101) | 0.45 | inactive
ATG101 (autophagy related 101) | 0.22 | inactive
ATG101 (autophagy related 101) | 0.21 | inactive
ATG101 (autophagy related 101) | 0.58 | inactive
COG6 (component of oligomeric golgi complex 6) | -0.98 | inactive
COG6 (component of oligomeric golgi complex 6) | -0.82 | inactive
COG6 (component of oligomeric golgi complex 6) | -0.27 | inactive
HSD17B11 (hydroxysteroid 17-beta dehydrogenase 11) | 0.55 | inactive
HSD17B11 (hydroxysteroid 17-beta dehydrogenase 11) | 0.36 | inactive
HSD17B11 (hydroxysteroid 17-beta dehydrogenase 11) | -0.05 | inactive
HSD17B11 (hydroxysteroid 17-beta dehydrogenase 11) | 0.17 | inactive
TRIOBP (TRIO and F-actin binding protein) | 0.74 | inactive
TRIOBP (TRIO and F-actin binding protein) | 0.81 | inactive
TRIOBP (TRIO and F-actin binding protein) | 0.75 | inactive
TRIOBP (TRIO and F-actin binding protein) | 0.22 | inactive
ADAMTS17 (ADAM metallopeptidase with thrombospondin type 1 motif 17) | -0.32 | inactive
ADAMTS17 (ADAM metallopeptidase with thrombospondin type 1 motif 17) | -0.52 | inactive
ADAMTS17 (ADAM metallopeptidase with thrombospondin type 1 motif 17) | -0.7 | inactive
ADAMTS17 (ADAM metallopeptidase with thrombospondin type 1 motif 17) | -0.76 | inactive
MRPS2 (mitochondrial ribosomal protein S2) | -0.23 | inactive
MRPS2 (mitochondrial ribosomal protein S2) | 0.72 | inactive
MRPS2 (mitochondrial ribosomal protein S2) | -0.51 | inactive
MRPS2 (mitochondrial ribosomal protein S2) | 0.76 | inactive
